# Over roughly 33,000 sequences, “E-score (-0.5 to 0.5)” has its median near -0.016; the highest 2% begin near 0.3. The list shows a part of the results.
# Target: T1, Yer184c (UniProt P39961)
# T1 sequence: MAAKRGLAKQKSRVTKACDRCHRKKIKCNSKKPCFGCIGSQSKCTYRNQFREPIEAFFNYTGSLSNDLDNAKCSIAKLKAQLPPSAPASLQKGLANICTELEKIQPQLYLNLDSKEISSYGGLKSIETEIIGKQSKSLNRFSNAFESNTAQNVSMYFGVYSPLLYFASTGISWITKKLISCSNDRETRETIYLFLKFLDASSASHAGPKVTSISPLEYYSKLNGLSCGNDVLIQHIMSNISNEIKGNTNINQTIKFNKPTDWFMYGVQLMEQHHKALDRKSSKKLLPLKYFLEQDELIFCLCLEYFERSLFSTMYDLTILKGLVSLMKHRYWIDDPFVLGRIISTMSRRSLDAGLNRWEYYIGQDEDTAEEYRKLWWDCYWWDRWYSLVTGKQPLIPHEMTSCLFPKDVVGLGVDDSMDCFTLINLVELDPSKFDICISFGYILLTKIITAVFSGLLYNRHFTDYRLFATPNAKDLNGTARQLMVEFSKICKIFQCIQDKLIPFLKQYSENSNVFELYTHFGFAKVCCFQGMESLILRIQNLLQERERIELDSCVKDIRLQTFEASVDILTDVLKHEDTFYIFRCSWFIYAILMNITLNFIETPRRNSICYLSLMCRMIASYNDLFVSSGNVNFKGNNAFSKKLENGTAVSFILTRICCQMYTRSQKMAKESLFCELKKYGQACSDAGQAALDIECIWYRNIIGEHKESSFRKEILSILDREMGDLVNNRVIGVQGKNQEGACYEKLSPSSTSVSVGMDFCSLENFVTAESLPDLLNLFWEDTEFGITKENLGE
# Assay: PBM E-score (8-mer binding enrichment) (E-score (-0.5 to 0.5)); higher = stronger / more preferred TF binding
# Conditions: protein concentration: 100 nM; construct: GST-full length
# Description: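 Universal 'all 10-mer' protein binding microarrays (Agilent AMADID 015681) probed with GST-tagged S. cerevisiae TFs (full-length or DBD) made by in vitro transcription/translation (PURExpress), about 100-200 nM. Bound TF was detected with fluorescent anti-GST. Each ungapped 8-mer (which stands for itself and its reverse complement) is scored by the PBM enrichment score (E-score), a modified Wilcoxon-Mann-Whitney statistic from -0.5 to +0.5, computed with the Universal PBM Analysis Suite. Scale: above 0.35 generally sequence-specific binding.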
row,Sequence,PBM E-score
1,AGGGGATC,-0.237
2,AGCGACCC,-0.136
3,ATTGTCAG,0.127
4,ACACGCTC,0.122
5,GGGGCGCA,-0.328
6,ACATTGAA,0.183
7,ATCTAGCC,0.00276
8,CAGACTCG,-0.218
9,ACCTCAGC,-0.082
10,CTTGCCGA,0.22
11,CCGCACCG,0.0286
12,ATTAGCTC,0.00455
13,ATAACCTA,-0.0572
14,AGGGCATG,-0.163
15,ACCGTGAA,0.202
16,AGCCTACA,-0.0273
17,GGGCCTGA,-0.276
18,CACTCGCC,-0.0526
19,GACGAATA,0.215
20,CGTACAGA,-0.0312
21,ATCTTCAA,0.187
22,AATATGAG,0.0728
23,AAGGAATG,-0.0413
24,ACAGGTGC,-0.0628
25,AGTGCCAG,-0.28

row,Sequence,PBM E-score
1,ACGTAGTA,0.0723
2,ACGGGCGA,0.0137
3,ACTGATGG,-0.135
4,CAACAGCC,0.0881
5,CCGGTACA,0.278
6,CACGAAGA,0.107
7,ATGTCATC,-0.243
8,AGCTTAAG,-0.0855
9,AAAGAGCC,-0.164
10,ATGGCCTG,-0.0401
11,CTTTGCTC,-0.0306
12,TAGCTGAA,0.0492
13,GTCTGCAC,-0.192
14,CCCCGCTC,-0.255
15,ACGGTCCA,-0.0592
16,CGATCAAC,-0.0208
17,GCTATATA,0.104
18,TACACTAA,-0.0235
19,ACATCACG,-0.0968
20,ACCGCCCC,-0.106
21,ATGAGATG,-0.0721
22,CATCAGAA,0.0411
23,GAAACCCC,-0.0567
24,AGGGCTGC,-0.145
25,GGGTTTGA,0.0443

row,Sequence,PBM E-score
1,ATTTCGGA,0.348
2,GTGTGTCA,-0.0284
3,GGACACGA,-0.0943
4,AACTAGGC,-0.0776
5,CGCTTCCG,0.286
6,AGTTCCCG,0.223
7,AGCAAGAA,0.11
8,CAGTCCTA,-0.268
9,CAGCGATG,-0.107
10,GAGTTGAC,-0.0176
11,GAGCCAAC,-0.0948
12,ACCGGACT,0.101
13,CGGATAAC,0.34
14,GAACCGAC,0.213
15,CAGTATCC,-0.145
16,CTCCCTAC,-0.22
17,GGGCGCAC,-0.248
18,ATAAAATG,0.0585
19,AATATTAC,0.215
20,ACTCTGGC,-0.105
21,CGTGGTCA,0.0155
22,AAGGACCA,-0.0606
23,ATATCGCA,-0.157
24,AGCGGGAT,-0.112
25,TAAGGGGA,-0.0507

row,Sequence,PBM E-score
1,ACCCCCAC,-0.418
2,ATAACAAT,0.115
3,ATCATCGG,0.261
4,AGAGTCAT,-0.268
5,GCGCGTTA,0.0387
6,AGCGTCAA,-0.00317
7,ATTGACGC,-0.025
8,ACTTCGAA,0.123
9,ACAGATGG,-0.286
10,AGGATGAC,-0.285
11,ATGGTCGA,-0.119
12,ACACGTGT,-0.226
13,GGAAGAGA,0.065
14,CCGCCAGC,-0.161
15,GAACGTCA,-0.303
16,CGGTATTA,0.251
17,ATTTCATG,-0.173
18,GATATGGC,-0.259
19,CGAAATGA,0.226
20,CAGAAGGC,-0.169
21,CCGGGAGG,0.031
22,AGACAGAA,0.0626
23,CTGTTGGA,0.0412
24,ATTGAGTA,0.191
25,GGAGACTA,-0.102

row,Sequence,PBM E-score
1,CAACGAAG,0.0112
2,AAGGCCAG,-0.221
3,AGCGTACT,-0.218
4,CTACCAAG,-0.0732
5,ATATGTTG,0.0182
6,AGACCAAT,0.115
7,AGGGCGGG,0.0124
8,GCAGTACA,-0.0532
9,TACTTGAA,0.0272
10,ATGGACAG,-0.106
11,GTGAAGAA,0.201
12,ATATCTCC,0.139
13,AGGTGCAA,-0.00956
14,GTCGAGAA,-0.0535
15,GGAAATCA,0.171
16,CCCCAAAG,-0.253
17,ATCCGCTC,0.0705
18,GTCGCGTA,-0.0448
19,AAACGCGA,-0.0215
20,ATCGCCAT,-0.0434
21,ACTTATAG,-0.094
22,AAGCGAGT,0.225
23,ATTAAAAG,0.172
24,ATAAAGAC,0.0617
25,GGATTACA,-0.0496

row,Sequence,PBM E-score
1,ACACACAC,-0.0681
2,CGAGAATA,0.102
3,CGAAGTAC,0.0763
4,CATCGGCA,0.211
5,CATCTTGG,-0.0174
6,AGTGATAT,-0.0302
7,TGAGAACA,0.12
8,GAAGGGGC,-0.358
9,GACAGACA,0.176
10,AACATGTC,-0.00421
11,CTGGAGGC,-0.122
12,ATTGCGGC,0.0068
13,AGTTTATC,0.175
14,CTTTGCCA,0.034
15,ATTATCTG,0.16
16,ACCGCAAA,0.115
17,CCATCGTA,-0.0913
18,ATTCGGGA,0.205
19,AATTCTTA,0.0305
20,CCCGGGAA,0.272
21,AATAGAGG,-0.0709
22,CCGCCGAG,0.304
23,AAGTTTGG,0.113
24,ATCTTACG,0.066
25,CGACAACG,0.197

# Reformatted as tab-separated lines: entries from further up
row	Sequence	PBM E-score
16	CCCCAAAG	-0.253
17	ATCCGCTC	0.0705
18	GTCGCGTA	-0.0448
20	ATCGCCAT	-0.0434
21	ACTTATAG	-0.094
22	AAGCGAGT	0.225
23	ATTAAAAG	0.172
24	ATAAAGAC	0.0617
25	GGATTACA	-0.0496
2	CGAGAATA	0.102
3	CGAAGTAC	0.0763
4	CATCGGCA	0.211
5	CATCTTGG	-0.0174
6	AGTGATAT	-0.0302
7	TGAGAACA	0.12
8	GAAGGGGC	-0.358
9	GACAGACA	0.176
11	CTGGAGGC	-0.122
12	ATTGCGGC	0.0068
13	AGTTTATC	0.175
14	CTTTGCCA	0.034
15	ATTATCTG	0.16
16	ACCGCAAA	0.115
17	CCATCGTA	-0.0913
18	ATTCGGGA	0.205
19	AATTCTTA	0.0305
20	CCCGGGAA	0.272
21	AATAGAGG	-0.0709
22	CCGCCGAG	0.304
23	AAGTTTGG	0.113
24	ATCTTACG	0.066
25	CGACAACG	0.197

# More records follow:

row,Sequence,PBM E-score
1,AACTGCGG,0.117
2,ATTAACGA,0.223
3,AAGATCGC,-0.0568
4,CCGGGAAG,0.244
5,CGATACAG,0.0485
6,CCAATTTC,0.146
7,AGAGTATG,-0.0604
8,AAATCGCT,-0.116
9,CAGTAGCC,-0.186
10,GAACGAAA,-0.0735
11,CATTGACG,-0.124
12,CCGTAGCA,-0.0645
13,AGGTTAAC,-0.037
14,CCAGTGGG,-0.199
15,GGTACTTA,0.0666
16,ACCTTTGC,-0.0958
17,ATAGAGTC,-0.17
18,CCGTCCGA,0.102
19,ACACGTCC,-0.116
20,GGGTTAGA,-0.134
21,ACATCACT,-0.0268
22,CATCAACG,0.0675
